Measurements from “University of Dundee, Small-Polar-MMV Screening Library” (2021), ChEMBL document CHEMBL3988442.

Amino acid sequences for entries named in this document (tags omitted). Residues count along the entry.
UniProt Q8IDJ8, 1-583: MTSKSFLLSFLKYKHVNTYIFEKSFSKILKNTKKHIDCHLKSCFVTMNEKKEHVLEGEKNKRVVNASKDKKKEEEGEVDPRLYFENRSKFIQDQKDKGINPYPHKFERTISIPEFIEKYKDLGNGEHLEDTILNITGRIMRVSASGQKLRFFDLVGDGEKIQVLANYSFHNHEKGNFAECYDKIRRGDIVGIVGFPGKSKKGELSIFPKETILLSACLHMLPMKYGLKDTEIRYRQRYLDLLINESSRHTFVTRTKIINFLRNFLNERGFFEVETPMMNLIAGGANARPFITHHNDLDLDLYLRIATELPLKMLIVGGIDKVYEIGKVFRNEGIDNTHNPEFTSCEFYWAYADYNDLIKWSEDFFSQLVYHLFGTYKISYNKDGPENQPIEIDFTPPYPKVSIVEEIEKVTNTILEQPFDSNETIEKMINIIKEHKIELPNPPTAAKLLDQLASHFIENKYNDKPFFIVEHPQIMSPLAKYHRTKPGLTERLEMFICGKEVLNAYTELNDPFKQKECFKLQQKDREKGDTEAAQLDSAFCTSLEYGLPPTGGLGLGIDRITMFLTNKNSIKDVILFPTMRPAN
UniProt P9WNZ1, whole entry: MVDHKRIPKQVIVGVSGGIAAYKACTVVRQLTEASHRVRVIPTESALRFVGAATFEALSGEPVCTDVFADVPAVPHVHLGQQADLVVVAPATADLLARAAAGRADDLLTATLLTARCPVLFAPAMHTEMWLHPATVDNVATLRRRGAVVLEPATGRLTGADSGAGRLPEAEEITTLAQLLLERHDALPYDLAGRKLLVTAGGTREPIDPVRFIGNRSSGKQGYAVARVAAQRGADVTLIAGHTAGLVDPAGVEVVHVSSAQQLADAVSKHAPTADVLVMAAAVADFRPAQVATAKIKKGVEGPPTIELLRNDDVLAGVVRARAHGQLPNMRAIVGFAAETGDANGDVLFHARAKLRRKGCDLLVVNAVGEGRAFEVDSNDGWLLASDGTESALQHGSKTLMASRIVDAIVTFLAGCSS

PfKRS1: 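Enzyme assay of the cytosolic lysyl-tRNA synthetase in 384-well plates, read by luminescence. Target: Lysine-tRNA ligase, Plasmodium falciparum 3D7 (UniProt Q8IDJ8). Compounds at 30 µM. Direction is inferred from only a few compounds that gave an IC50; most scored high, so higher reads as stronger inhibition. Size under these conditions: about 69,000 compounds, about 49 of them at 50% or above in at least one test.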
Toxoplasma: 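Assay of Toxoplasma gondii numbers, read through their beta-galactosidase reporter with a colour substrate. Tested at 10 µM. Higher reads as fewer parasites (inferred from which compounds were picked for retests). Size under these conditions: about 67,000 compounds, about 260 of them at 50% or above in at least one test.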
CoaBC: 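Coenzyme A biosynthesis protein CoaBC, Mycobacterium tuberculosis (UniProt P9WNZ1). Enzyme assay of CoaBC with a phosphate dye (Biomol Green) read at 650 nm. Compounds at 30 µM. Direction is inferred from only a few compounds that gave an IC50; most scored high, so higher reads as stronger inhibition. Most strong results did not repeat in a second test. About 67,000 compounds were tested under these conditions; 0.06% (about 40) showed 50% or more at least once.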

The filed quantity is “Percent Effect” (%). The controls that fix the scale are not given in the record; negative values are as filed. The compounds are a random part of those screened. A dash means the value is not listed here; it may have been measured.

| Compound | PfKRS1 | Toxoplasma | CoaBC |
|---|---|---|---|
| `O=C(NCc1ccc(CN2CCCC2)cc1)NCc1ccon1` | 3.063 | -3.932 | 0.3654 |
| `CCC(=O)Nc1cc(Cl)ccc1C(=O)N(C)Cc1noc(CC)n1` | 2.827 | -7.18 | 0.4808 |
| `COc1cc2c(nn1)CCN(Cc1nnc(Cc3ccccc3)o1)C2` | 1.939 | -5.948 | 0.495 |
| `Cc1nsc(C(=O)NCCc2ccc(Cl)cc2)n1` | 4.451 | 6.685 | 3.38 |
| `Fc1ccc(N2CCC3(CC2)CC(OCc2cccnc2)CO3)cc1.O=C(O)C(F)(F)F` (stereo not given) | - | -11.91 | - |
| `CCCc1nc(C)c(C(=O)NCCn2nc3ccccn3c2=O)s1` | 0.08501 | -4.547 | -0.1245 |
| `CC(C)CN1CCN(C(=O)c2ccn(C)c(=O)c2)CC1` | 0.3296 | 0.2259 | 5.471 |
| `Cc1nc(C)n(C2CCCN(C(=O)c3ccc(F)cc3F)C2)n1` (stereo not given) | 1.313 | -7.194 | -207.2 |
| `NC(=O)c1ccc(S(=O)(=O)NCCc2ccccn2)cc1` | 5.437 | 1.89 | -4.114 |
| `CC(C)CCS(=O)(=O)N1CCCC(c2nncn2C(C)C)C1` (stereo not given) | 1.378 | 9.069 | -5.506 |
| `CNC(=O)C(C)NC(=O)c1cc(COc2ccc(OC)cc2Cl)[nH]n1` (stereo not given) | 6.666 | 6.288 | 1.843 |
| `Cc1cc(NCCC(=O)NC(C)C)nc(-c2ccncc2)n1` | 2.21 | 16.26 | 8.611 |
| `O=C1CC(c2cccnc2)C2(CCN(C(=O)c3ccncc3)CC2)N1` (stereo not given) | -1.222 | 1.883 | 9.769 |
| `O=C(C1CCCCC1)N1C[C@@H]2CCNC[C@@H]21` | 5.484 | - | 2.29 |
| `Cc1cc(C)n(CC2CCCN2CCS(=O)(=O)c2ccccc2)n1` (stereo not given) | -2.344 | -16.62 | 0.5181 |
| `CC(NC(=O)C1CN(c2ncnc3c2nnn3C)C1)c1ccccc1` (stereo not given) | 1.863 | 6.439 | 3.944 |
| `O[C@@H]1C[C@@H](c2nc(-c3ccccc3)no2)N(Cc2ccncc2)C1` | 8.236 | 7.143 | 7.097 |
| `[H][C@]12CC[C@]([H])(CN(C(=O)CCn3cc(Cl)cn3)C1)N(CCOC)C2` | - | 3.759 | - |
| `CC(=O)N1N=C(c2ccco2)OC1C(=O)N(C)CCc1ccccc1` (stereo not given) | -3.555 | -4.706 | 3.641 |
| `CC(=O)CSc1nnc2n1N=CN(c1cccc(Cl)c1)C2` | 3.041 | 10.89 | 4.698 |
| `CCc1nnc2n1CCN(C(=O)c1cnc(C3CC3)s1)C2` | 5.92 | -3.35 | 5.683 |
| `Fc1cccc(Cl)c1CNCCOc1ccccn1` | 4.969 | 9.145 | -9.375 |
| `COC[C@]1(O)CCN(c2cc(N3CCOCC3)ncn2)CC1(C)C` | -1.401 | 7.258 | 1.984 |
| `Cc1ccc(C)c(CSc2nnc(C(N)Cc3ccccc3)o2)c1` (stereo not given) | -0.7698 | - | 1.823 |
| `CC(C)N1CC2(CCCN(c3ccnc4ccccc34)C2)CCC1=O` (stereo not given) | 6.073 | 18.94 | 0.5981 |
| `O=C(c1ccccc1)N1CCC2(CC1)CNc1c(F)cccc12` | 6.285 | - | 5.854 |
| `O=C1CNc2ncnc(N3CCN(Cc4ccccc4)CC3)c2N1` | 3.255 | -46.04 | 1.786 |
| `CC(C)(C)N1CC(C(=O)N2CC(Oc3ccc(F)cc3)C2)CC1=O` (stereo not given) | 0.365 | -0.2875 | -3.185 |
| `O=c1cc(CNS(=O)(=O)C2CC2)nc2n1CCCN(CC1CC1)C2` | 3 | - | 3.342 |
| `COC(=O)CCC(=O)N1CCc2nc(C(=O)N3CCCCC3)sc2CC1` | 2.254 | 5.663 | - |
| `COCC(O)CN1CCC(NC(=O)c2cccc(C)c2)CC1` (stereo not given) | -3.668 | -4.423 | - |
| `Cc1cnn(CCCn2ncc(N3CCC(CN)C3)cc2=O)c1` (stereo not given) | -4.375 | -6.351 | -11.6 |
| `O=C(c1ccn(-c2cccc(Cl)c2)n1)N1CCN(CCO)CC1` | 2.376 | -18.5 | 3.636 |
| `Cc1nnsc1C(=O)NCc1cccnc1N1CCCC(O)C1` (stereo not given) | 3.354 | -1.684 | -0.3797 |
| `CN(C)c1ccc(C(=O)N2CCC(c3cc4ncccc4[nH]3)CC2)cc1` | 0.7193 | 0.1233 | 7.022 |
| `[H][C@]12CCC(=O)N(c3cccnc3)[C@@]1([H])CCN2C(=O)c1cccs1` | - | -5.262 | - |
| `CCCc1nnsc1C(=O)N1CCN(CC(C)O)CC1` (stereo not given) | 10.02 | - | -3.171 |
| `CC(C(=O)Nc1nccs1)N1CCc2nn(C)c(=O)cc2C1` (stereo not given) | 1.575 | 7.43 | 4.971 |
| `CC(C(=O)NCc1ccc(N2CCCCCC2)nc1)S(C)(=O)=O` (stereo not given) | 1.757 | 6.451 | 17.81 |
| `Cc1ccccc1-c1cncc(C2CCN(C(C)C)CC2)n1` | 3.244 | 4.155 | 3.796 |
| `Cc1cnn(CC2CN(c3nnc(C)c(C)c3C#N)CCO2)c1` (stereo not given) | -0.5549 | 7.882 | 6.971 |
| `CNC(=O)CN1CCCC12CCN(C(=O)c1ccoc1)CC2` | 4.392 | - | 4.762 |
| `CCc1ccccc1-c1cc(OC)nc(N)n1` | 6.439 | 1.821 | 5.411 |
| `COCC1c2c(cnn2C)CCN1Cc1ccc(F)cc1.O=C(O)C(F)(F)F.O=C(O)C(F)(F)F` (stereo not given) | - | 17.38 | - |
| `COCCN1CCC2(C1)c1ccccc1S(=O)(=O)N2Cc1ccccc1` (stereo not given) | 1.109 | - | 4.713 |
| `CN(C)c1ncc(NC(=O)N2CCC(CN3CCCC3)C2)cn1` (stereo not given) | 3.846 | 14.89 | -15.84 |
| `Cc1cccc(Nc2cc(C3CCCN(CC(N)=O)C3)ccn2)n1.O=CO.O=CO` (stereo not given) | - | 13.04 | - |
| `O=C(O)C(F)(F)F.[H][C@]12CN(Cc3nccs3)C[C@@]1([H])OCCN(C(=O)c1cccn1C)C2` | - | 8.128 | - |
| `CCc1ncncc1C(=O)NCCN1CCC(C)CC1` | -0.9029 | 25.41 | -7.173 |
| `COc1cc(CNCc2ccc(-n3nc(C)cc3C)nc2)cc(OC)c1` | -0.09474 | -26.29 | 4.183 |
| `O=C(c1ccoc1)N1CC[C@@H]2O[C@H](COCc3ccccn3)CC[C@@H]21` | -0.2212 | - | 12.6 |
| `Cn1cc(C2CC(=O)NC23CCN(C(=O)c2cccnc2)CC3)cn1.O=C(O)C(F)(F)F` (stereo not given) | - | 0.479 | - |
| `CC(C)(C)c1noc(CN2CCCC(CNS(N)(=O)=O)C2)n1` (stereo not given) | 2.981 | -14.39 | -2.723 |
| `O=C(NC1CC1)[C@H]1C[C@@H]2CCN(CCc3ccccc3)C[C@H]2O1` | 2.109 | - | 15.03 |
| `COCC(=O)N1CCC2(CC1)CN(c1ccccn1)CCO2` | 3.765 | - | 9.533 |
| `CCc1nnsc1C(=O)N(C)Cc1ccc(C)o1` | 11.28 | -0.8954 | 3.018 |
| `Cc1ccc(C(=O)N2C[C@@H]3CN(c4ncccn4)C[C@@H]3C2)cn1` | 6.503 | - | 1.434 |
| `CN1CC2(CCN(C(=O)Cn3ncc4ccccc4c3=O)CC2)OC1=O` | 8.649 | - | 2.309 |
| `CC(C)N1CCOCC2(CN(Cc3ccco3)CCO2)C1` (stereo not given) | -1.315 | 17.79 | 3.226 |
| `CC(C)n1ccnc1C1CCCN(Cc2ccc(F)c(F)c2)C1` (stereo not given) | -1.149 | 16.82 | 0.7614 |
| `C=C(C)CN(CC)Cc1nc(C)no1` | 0.2481 | -7.982 | 7.265 |

The last 7 entries again:

* COCC(=O)N1CCC2(CC1)CN(c1ccccn1)CCO2 : PfKRS1: 3.765%; CoaBC: 9.533%
* CCc1nnsc1C(=O)N(C)Cc1ccc(C)o1 : PfKRS1: 11.28%; Toxoplasma: -0.8954%; CoaBC: 3.018%
* Cc1ccc(C(=O)N2C[C@@H]3CN(c4ncccn4)C[C@@H]3C2)cn1 : PfKRS1: 6.503%; CoaBC: 1.434%
* CN1CC2(CCN(C(=O)Cn3ncc4ccccc4c3=O)CC2)OC1=O : PfKRS1: 8.649%; CoaBC: 2.309%
* CC(C)N1CCOCC2(CN(Cc3ccco3)CCO2)C1 (stereo not given) : PfKRS1: -1.315%; Toxoplasma: 17.79%; CoaBC: 3.226%
* CC(C)n1ccnc1C1CCCN(Cc2ccc(F)c(F)c2)C1 (stereo not given) : PfKRS1: -1.149%; Toxoplasma: 16.82%; CoaBC: 0.7614%
* C=C(C)CN(CC)Cc1nc(C)no1 : PfKRS1: 0.2481%; Toxoplasma: -7.982%; CoaBC: 7.265%